The list shows a part of the results.
Legend:
Test in all cases: log2 fold change, soluble protein after heating vs DMSO (PISA); higher = thermal stabilisation; K562 cells, 10 uM, 30 min; active = over 0.2 and 3.5 SD of the protein, either way, in both replicates (recomputed)
[1] = compound: CC[C@@H]1C(=O)N(C)c2cnc(Nc3ccc(C(=O)NC4CCN(C)CC4)cc3OC)nc2N1C1CCCC1
Outline: (§1)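 Soluble protein was defined as the supernatant after 21,000xg for 90 min. It came from K562 cells at 2×10^6 cells/mL given 10 μM compound for 30 min, heated in aliquots for 3 min across 48°C-58°C, pooled, and extracted in PBS with 0.5% NP-40 at 4°C, and was quantified by TMTpro 16plex LC-MS/MS with equalised channel sums. Thermal stability against control samples, from duplicates, is reported as log2 fold change.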

The chains behind the UniProt entries cited, without tags or fusion partners. Where a name states a change or a piece, a line headed by the entry shows the natural chain unless it says otherwise.
UniProt Q8IUX4: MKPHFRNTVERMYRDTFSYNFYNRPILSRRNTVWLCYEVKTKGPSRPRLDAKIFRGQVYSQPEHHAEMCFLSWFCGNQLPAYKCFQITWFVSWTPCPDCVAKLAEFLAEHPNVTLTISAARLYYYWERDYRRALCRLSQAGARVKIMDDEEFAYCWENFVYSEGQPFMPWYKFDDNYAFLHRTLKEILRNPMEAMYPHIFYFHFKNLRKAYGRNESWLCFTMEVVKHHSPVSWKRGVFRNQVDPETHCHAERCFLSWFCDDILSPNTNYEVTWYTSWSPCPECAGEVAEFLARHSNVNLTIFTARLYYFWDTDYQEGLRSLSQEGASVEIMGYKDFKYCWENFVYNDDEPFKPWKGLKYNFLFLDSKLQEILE
UniProt Q10567: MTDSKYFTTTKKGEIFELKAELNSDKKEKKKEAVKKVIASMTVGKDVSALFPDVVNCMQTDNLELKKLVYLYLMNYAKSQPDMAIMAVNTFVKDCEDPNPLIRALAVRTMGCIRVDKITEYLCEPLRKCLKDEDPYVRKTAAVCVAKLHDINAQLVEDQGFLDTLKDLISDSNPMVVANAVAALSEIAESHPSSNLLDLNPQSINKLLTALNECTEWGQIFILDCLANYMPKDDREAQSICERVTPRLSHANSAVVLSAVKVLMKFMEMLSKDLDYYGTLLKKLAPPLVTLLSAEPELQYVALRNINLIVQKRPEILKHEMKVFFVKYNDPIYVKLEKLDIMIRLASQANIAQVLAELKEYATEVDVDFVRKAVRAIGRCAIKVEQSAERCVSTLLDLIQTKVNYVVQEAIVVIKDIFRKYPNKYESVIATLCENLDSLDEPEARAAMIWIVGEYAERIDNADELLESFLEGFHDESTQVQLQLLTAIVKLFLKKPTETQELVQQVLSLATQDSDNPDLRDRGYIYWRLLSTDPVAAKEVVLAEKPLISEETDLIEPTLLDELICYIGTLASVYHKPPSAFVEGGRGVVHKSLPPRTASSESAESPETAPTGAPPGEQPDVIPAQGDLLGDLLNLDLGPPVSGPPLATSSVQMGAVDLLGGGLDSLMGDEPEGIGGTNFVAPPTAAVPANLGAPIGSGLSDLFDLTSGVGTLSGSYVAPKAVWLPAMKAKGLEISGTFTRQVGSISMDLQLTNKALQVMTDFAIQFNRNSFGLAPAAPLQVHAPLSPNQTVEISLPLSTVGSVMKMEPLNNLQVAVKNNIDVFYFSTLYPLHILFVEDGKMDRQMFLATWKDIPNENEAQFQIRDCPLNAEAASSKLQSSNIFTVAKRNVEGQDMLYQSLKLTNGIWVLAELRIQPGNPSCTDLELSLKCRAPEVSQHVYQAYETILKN
UniProt Q9BQD7: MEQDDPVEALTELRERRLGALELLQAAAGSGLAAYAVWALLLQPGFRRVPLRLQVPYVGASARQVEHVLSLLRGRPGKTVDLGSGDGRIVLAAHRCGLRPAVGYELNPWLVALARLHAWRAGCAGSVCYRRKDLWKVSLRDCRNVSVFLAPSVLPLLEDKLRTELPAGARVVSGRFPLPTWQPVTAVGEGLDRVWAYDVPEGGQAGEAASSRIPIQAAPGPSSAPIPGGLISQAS
UniProt Q8NB46: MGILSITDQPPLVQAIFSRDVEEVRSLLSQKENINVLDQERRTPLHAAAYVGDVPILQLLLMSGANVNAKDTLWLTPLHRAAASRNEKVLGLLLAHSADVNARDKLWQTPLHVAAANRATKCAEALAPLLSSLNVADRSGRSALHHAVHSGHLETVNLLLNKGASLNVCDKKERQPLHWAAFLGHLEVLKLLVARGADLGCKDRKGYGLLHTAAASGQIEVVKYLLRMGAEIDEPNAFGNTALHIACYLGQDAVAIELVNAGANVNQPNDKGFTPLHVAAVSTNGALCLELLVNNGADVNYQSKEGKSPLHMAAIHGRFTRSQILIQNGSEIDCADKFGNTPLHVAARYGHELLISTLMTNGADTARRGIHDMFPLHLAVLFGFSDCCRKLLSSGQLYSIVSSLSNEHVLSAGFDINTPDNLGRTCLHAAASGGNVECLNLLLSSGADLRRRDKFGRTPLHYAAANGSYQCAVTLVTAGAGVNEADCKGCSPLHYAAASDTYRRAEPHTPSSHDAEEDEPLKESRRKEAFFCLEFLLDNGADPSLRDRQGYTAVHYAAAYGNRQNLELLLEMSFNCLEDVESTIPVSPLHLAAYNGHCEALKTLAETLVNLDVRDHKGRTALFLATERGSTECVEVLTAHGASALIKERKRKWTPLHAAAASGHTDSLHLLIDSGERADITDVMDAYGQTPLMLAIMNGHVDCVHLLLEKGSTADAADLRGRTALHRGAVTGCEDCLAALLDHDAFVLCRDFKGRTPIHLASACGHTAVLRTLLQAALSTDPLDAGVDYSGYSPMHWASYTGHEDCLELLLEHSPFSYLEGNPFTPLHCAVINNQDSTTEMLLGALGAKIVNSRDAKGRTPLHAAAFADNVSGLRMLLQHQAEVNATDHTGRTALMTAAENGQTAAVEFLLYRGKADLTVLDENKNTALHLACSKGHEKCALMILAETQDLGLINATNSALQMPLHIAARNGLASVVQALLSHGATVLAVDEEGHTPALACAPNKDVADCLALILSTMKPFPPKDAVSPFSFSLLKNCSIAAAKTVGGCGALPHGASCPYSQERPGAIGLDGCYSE
UniProt P02656: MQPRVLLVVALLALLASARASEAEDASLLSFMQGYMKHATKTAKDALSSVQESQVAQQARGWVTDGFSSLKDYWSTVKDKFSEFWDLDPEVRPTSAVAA
UniProt Q96P48: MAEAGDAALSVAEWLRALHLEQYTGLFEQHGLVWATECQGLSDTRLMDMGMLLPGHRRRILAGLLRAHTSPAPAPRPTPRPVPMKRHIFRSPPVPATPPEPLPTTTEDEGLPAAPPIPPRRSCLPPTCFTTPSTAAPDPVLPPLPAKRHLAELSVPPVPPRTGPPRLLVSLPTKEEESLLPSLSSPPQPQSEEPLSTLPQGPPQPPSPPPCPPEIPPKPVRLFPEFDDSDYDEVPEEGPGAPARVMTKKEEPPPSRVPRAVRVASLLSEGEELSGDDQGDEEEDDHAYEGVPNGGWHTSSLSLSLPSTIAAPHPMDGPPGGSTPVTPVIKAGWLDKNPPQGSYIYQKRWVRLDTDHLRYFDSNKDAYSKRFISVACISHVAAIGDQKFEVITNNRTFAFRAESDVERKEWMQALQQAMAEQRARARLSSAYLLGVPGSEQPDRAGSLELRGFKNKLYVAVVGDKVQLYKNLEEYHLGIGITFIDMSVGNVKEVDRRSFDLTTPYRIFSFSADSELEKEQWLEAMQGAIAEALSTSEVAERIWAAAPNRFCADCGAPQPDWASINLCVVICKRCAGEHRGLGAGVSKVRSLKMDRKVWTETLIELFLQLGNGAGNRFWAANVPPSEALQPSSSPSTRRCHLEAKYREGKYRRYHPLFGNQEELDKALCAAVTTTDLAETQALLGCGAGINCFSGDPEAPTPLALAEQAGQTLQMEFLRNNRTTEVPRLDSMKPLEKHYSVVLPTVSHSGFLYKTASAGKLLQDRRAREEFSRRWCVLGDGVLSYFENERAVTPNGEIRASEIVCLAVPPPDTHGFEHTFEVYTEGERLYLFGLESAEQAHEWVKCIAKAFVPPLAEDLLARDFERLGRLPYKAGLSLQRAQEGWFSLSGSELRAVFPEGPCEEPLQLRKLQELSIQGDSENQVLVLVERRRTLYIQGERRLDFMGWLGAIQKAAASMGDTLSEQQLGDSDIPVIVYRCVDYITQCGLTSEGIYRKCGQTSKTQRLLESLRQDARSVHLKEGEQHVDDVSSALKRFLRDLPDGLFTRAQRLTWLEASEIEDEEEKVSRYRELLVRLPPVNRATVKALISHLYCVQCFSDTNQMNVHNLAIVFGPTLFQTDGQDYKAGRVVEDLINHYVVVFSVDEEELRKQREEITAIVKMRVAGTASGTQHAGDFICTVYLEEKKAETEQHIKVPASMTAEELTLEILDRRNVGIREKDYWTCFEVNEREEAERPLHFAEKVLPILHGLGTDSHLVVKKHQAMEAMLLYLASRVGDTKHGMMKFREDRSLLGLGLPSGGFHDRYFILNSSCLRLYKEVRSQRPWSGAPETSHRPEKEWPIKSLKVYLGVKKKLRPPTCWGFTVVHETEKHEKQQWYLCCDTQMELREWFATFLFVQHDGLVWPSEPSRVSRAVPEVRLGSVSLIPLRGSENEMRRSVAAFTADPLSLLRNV
UniProt Q9Y5C1: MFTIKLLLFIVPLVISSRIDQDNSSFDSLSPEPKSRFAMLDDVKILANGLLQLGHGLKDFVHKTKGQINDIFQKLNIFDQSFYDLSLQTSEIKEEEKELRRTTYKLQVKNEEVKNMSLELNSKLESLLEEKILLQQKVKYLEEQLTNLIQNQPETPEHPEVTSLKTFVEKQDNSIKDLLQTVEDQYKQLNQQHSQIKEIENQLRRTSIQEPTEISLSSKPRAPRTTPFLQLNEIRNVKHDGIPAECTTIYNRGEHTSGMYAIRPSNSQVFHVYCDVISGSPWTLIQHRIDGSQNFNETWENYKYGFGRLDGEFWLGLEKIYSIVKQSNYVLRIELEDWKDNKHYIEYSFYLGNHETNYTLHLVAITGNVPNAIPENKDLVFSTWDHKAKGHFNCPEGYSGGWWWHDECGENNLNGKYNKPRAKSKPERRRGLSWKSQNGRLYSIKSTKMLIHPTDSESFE
UniProt Q07960: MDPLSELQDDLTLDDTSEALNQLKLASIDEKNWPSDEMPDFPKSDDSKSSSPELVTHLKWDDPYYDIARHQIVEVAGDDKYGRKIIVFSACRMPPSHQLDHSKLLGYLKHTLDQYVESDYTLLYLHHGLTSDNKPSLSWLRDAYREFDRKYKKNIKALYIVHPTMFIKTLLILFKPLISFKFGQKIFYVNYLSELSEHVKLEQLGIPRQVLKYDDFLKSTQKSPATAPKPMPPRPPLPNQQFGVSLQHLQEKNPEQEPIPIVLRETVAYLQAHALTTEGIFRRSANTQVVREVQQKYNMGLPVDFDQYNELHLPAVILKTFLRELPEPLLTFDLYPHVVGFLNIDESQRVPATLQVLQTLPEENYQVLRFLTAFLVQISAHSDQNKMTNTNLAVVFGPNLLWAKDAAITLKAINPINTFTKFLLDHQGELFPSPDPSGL
UniProt P02749: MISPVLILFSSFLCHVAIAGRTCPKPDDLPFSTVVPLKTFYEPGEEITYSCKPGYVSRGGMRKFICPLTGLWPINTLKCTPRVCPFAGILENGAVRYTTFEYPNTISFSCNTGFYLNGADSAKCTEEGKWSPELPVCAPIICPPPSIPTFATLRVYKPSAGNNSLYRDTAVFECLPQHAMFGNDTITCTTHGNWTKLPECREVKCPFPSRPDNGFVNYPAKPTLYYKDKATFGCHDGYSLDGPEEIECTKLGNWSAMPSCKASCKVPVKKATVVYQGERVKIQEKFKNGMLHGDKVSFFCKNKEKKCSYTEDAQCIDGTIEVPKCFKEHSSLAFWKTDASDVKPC
UniProt Q92625: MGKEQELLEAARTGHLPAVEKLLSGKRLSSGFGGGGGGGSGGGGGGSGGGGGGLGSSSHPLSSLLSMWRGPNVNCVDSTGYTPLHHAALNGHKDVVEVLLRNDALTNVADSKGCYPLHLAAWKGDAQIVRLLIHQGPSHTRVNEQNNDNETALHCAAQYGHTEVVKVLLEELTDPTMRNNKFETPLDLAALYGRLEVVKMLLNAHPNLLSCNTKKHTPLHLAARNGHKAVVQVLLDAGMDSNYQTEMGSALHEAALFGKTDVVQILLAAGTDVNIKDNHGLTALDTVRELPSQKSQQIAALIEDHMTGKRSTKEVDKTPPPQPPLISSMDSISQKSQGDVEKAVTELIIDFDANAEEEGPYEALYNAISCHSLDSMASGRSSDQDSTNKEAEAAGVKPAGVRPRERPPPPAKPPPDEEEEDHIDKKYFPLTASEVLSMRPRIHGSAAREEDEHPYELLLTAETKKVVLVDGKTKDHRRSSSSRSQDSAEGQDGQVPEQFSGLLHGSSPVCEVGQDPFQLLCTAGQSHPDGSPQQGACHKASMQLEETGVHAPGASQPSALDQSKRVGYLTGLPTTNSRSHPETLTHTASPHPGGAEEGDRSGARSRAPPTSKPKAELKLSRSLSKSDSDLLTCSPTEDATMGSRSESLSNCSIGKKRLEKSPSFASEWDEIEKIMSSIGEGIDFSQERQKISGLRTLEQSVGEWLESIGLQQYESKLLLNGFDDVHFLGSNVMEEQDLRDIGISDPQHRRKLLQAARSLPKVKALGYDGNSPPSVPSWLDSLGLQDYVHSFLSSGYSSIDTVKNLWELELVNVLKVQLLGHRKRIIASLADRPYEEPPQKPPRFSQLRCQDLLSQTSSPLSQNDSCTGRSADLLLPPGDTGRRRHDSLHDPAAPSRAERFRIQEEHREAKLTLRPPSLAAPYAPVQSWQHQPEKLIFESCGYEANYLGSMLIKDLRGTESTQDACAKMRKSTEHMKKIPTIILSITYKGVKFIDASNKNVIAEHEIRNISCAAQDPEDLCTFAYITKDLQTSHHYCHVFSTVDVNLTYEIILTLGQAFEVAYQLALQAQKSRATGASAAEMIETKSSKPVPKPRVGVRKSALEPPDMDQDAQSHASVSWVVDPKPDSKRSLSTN

volasertib = compound: CC[C@@H]1C(=O)N(C)c2cnc(Nc3ccc(C(=O)N[C@H]4CC[C@H](N5CCN(CC6CC6)CC5)CC4)cc3OC)nc2N1C(C)C [volasertib]
Outline: as §1

epoxomicin = compound: CC[C@H](C)[C@@H](C(=O)N[C@@H]([C@@H](C)O)C(=O)N[C@@H](CC(C)C)C(=O)[C@]1(CO1)C)NC(=O)[C@H]([C@@H](C)CC)N(C)C(=O)C [epoxomicin]
Outline: as §1

rosiglitazone = compound: CN(CCOC1=CC=C(C=C1)C[C@H]2C(=O)NC(=O)S2)C3=CC=CC=N3 (racemic) [rosiglitazone]
Outline: as §1

[2] = compound: CN1C2=C(C3=C1C(=O)N(N=C3)CC4=CC(=CC=C4)N)SC(=C2)S(=O)C
Outline: as §1

[3] = compound: CC[C@H](C)N1C=C(C2=C(C=C(C=C21)C3=CN=C(C=C3)N4CCNCC4)C(=O)NCC5=C(C=C(NC5=O)C)C)C
Outline: as §1

[4] = compound: CCn1cc(-c2ccnc3[nH]c(-c4cccc(CN(C)C)c4)cc23)c(-c2ccc(NC(=O)N(C)C)cc2)n1
Outline: as §1

[5] = compound: CN(C)CC(=O)Nc1ccc2[nH]c(=O)c3ccccc3c2c1
Outline: as §1

[6] = compound: CN1CCC(CNc2ccc3ncc(-c4cccc(OC(F)(F)F)c4)n3n2)CC1
Outline: as §1

[7] = compound: CCn1c(C(=O)N(C2CC2)C2CC2)cc2c3c(ncn3C)c(Nc3cc(C)n(C)n3)nc21
Outline: as §1

Measured: log2 fold change

APOBEC3F (UniProt Q8IUX4)
inactive: [1] 0.101 | volasertib 0.154 | epoxomicin -0.327 | rosiglitazone -0.008 | [2] 0.133

AP2A2 isoform 2 (UniProt O94973)
inactive: [1] 0.026 | volasertib -0.021 | [3] 0 | epoxomicin 0.048 | [4] -0.012 | [5] 0 | [2] 0.008 | [6] 0.089

AP1B1 isoform 3 (UniProt Q10567)
inactive: [1] 0.054 | volasertib -0.11 | [3] -0.005 | epoxomicin 0.186 | [4] 0.042 | [5] 0.027 | [2] 0.12 | [6] -0.188

ANKRD29 (UniProt Q8N6D5)
inactive: [1] -0.021 | volasertib -0.27 | [3] -0.152 | epoxomicin 0 | [4] -0.233 | [5] 0.025 | [2] -0.039 | [6] -0.043

APOBEC3D (UniProt Q96AK3)
inactive: [1] 0.023 | volasertib 0.259 | epoxomicin -0.189 | [7] 0.002 | [5] -0.118 | rosiglitazone -0.118 | [2] 0.266

ARFGEF1 (UniProt Q9Y6D6)
inactive: [1] -0.022 | volasertib -0.248 | [3] 0.01 | epoxomicin 0.033 | [4] 0.011 | [5] -0.005 | [2] -0.037 | [6] -0.046

ANTKMT (UniProt Q9BQD7)
inactive: [1] -0.294 | [3] 0.052 | epoxomicin -0.239 | [7] -0.087 | [4] -0.282 | [5] 0.211 | rosiglitazone -0.141 | [2] -0.079 | [6] 0.024

APPL1 (UniProt Q9UKG1)
inactive: [1] -0.149 | [3] 0.058 | epoxomicin -0.044 | [4] -0.021 | [5] 0.02 | [2] -0.113 | [6] -0.065
active: volasertib -0.317

ANAPC2 (UniProt Q9UJX6)
active: volasertib -0.338
inactive: [1] -0.071 | [3] 0.023 | epoxomicin -0.031 | [4] -0.018 | [5] 0.004 | [2] 0.03 | [6] -0.001

ANKRD52 (UniProt Q8NB46)
inactive: [1] -0.198 | [3] 0.135 | epoxomicin 0.096 | [7] -0.018 | [5] -0.181 | [2] -0.11

APOD (UniProt P05090)
inactive: [1] -0.038 | volasertib -0.177 | [3] 0.139 | [7] -0.057 | [5] 0.678

APOC3 (UniProt P02656)
inactive: [1] 0.32 | volasertib 0.393 | [3] 0.258 | epoxomicin -0.553 | rosiglitazone -0.038 | [2] -0.007

ARHGAP4 isoform 2 (UniProt P98171)
active: [2] 0.757
inactive: [1] -0.044 | volasertib -0.112 | [3] 0.048 | [5] 0.036

APOBEC3G (UniProt Q9HC16)
inactive: [1] 0.267 | volasertib -0.008 | [3] 0.051 | epoxomicin -0.146 | [5] -0.148 | [2] 0.025

ARAP1 (UniProt Q96P48)
inactive: [1] 0.107 | volasertib -0.32 | [3] -0.042 | epoxomicin -0.208 | [4] 0.118 | rosiglitazone -0.163 | [2] 0.21 | [6] -0.106

ANGPTL3 (UniProt Q9Y5C1)
inactive: [1] 0.052 | volasertib 0.211 | epoxomicin -0.193 | [7] 0.284 | [5] -0.1 | rosiglitazone -0.144 | [2] 0.138

APLP2 (UniProt Q06481)
inactive: [1] 0.076 | volasertib -0.04 | [3] -0.092 | epoxomicin 0.017 | [4] 0.006 | [5] -0.106 | [2] -0.004 | [6] 0.179

ARFRP1 (UniProt Q13795)
inactive: [1] -0.038 | volasertib -0.05 | [3] 0.048 | epoxomicin 0.037 | [4] -0.23 | [5] 0.012 | [2] -0.021 | [6] 0.071

APH1A (UniProt Q96BI3)
inactive: [1] -0.023 | volasertib 0.031 | [3] 0.004 | [4] 0.026 | [5] 0.19 | [2] 0.034 | [6] 0.03

APOB (UniProt P04114)
inactive: [1] -0.235 | volasertib -0.104 | [3] -0.227 | epoxomicin -0.056 | [4] 0.048 | [5] 0.014 | [2] 0.116 | [6] -0.354

ARHGAP1 (UniProt Q07960)
inactive: [1] 0.014 | volasertib -0.027 | [3] 0.021 | epoxomicin 0.013 | [4] -0.082 | [5] -0.007 | [2] -0.014 | [6] 0.19

ANKH (UniProt Q9HCJ1)
inactive: [1] 0.198 | volasertib 0.19 | [3] -0.297 | [7] 0.026 | [4] 0.044 | [2] -0.098 | [6] -0.366

AP1S2 (UniProt P56377)
inactive: [1] -0.013 | volasertib -0.078 | [3] 0.003 | epoxomicin 0.065 | [4] -0.14 | rosiglitazone 0.037 | [2] 0.126 | [6] -0.006

APOH (UniProt P02749)
inactive: [1] -0.397 | volasertib -0.443 | [3] -0.167 | [4] 0.078 | [5] -0.141 | [2] 0.48 | [6] 0.077

ARFGAP1 (UniProt Q8N6T3)
active: volasertib -0.545
inactive: [1] -0.182 | [3] 0.056 | epoxomicin 0.026 | [4] 0.008 | [5] 0.036 | [2] -0.016 | [6] 0.068

ARFIP1 (UniProt P53367)
inactive: [1] -0.008 | volasertib -0.184 | [3] 0.113 | epoxomicin -0.003 | [4] 0.083 | [5] -0.011 | [2] -0.053 | [6] -0.421

AP2S1 (UniProt P53680)
inactive: [1] 0.035 | volasertib 0.018 | [3] -0.024 | epoxomicin -0.022 | [4] -0.008 | [5] -0.071 | [2] -0.005 | [6] 0.037

AP4E1 (UniProt Q9UPM8)
inactive: volasertib -0.273 | [3] 0.095 | epoxomicin -0.024 | [7] 0.008 | [4] -0.012 | [5] -0.01 | rosiglitazone 0.128 | [2] 0.081 | [6] -0.364

ANKLE2 (UniProt Q86XL3)
inactive: volasertib -0.009 | [5] 0.005

Two entries drawn at random from those above:
AP2A2 isoform 2 (UniProt O94973)
inactive: [1] 0.026 | volasertib -0.021 | [3] 0 | epoxomicin 0.048 | [4] -0.012 | [5] 0 | [2] 0.008 | [6] 0.089

APOC3 (UniProt P02656)
inactive: [1] 0.32 | volasertib 0.393 | [3] 0.258 | epoxomicin -0.553 | rosiglitazone -0.038 | [2] -0.007

Following part.

ANKS1A (UniProt Q92625)
inactive: [1] 0.039 | epoxomicin 0.001 | rosiglitazone 0.06
